Ten molecules from paper PMC8666665 can be followed below.

These are yes or no findings as the source states them, for the method shown. For part of these data: Binding calls can cover weak binding; strength is not graded here. Tags and fused reporters may be left off the sequences shown. For part of these data: In cells and extracts the contact can be indirect.

Experiment [1] deals with T1, KPC2 fused to the N-term part of Renilla luciferase (F1) (UniProt Q9BSL1).
T1 sequence: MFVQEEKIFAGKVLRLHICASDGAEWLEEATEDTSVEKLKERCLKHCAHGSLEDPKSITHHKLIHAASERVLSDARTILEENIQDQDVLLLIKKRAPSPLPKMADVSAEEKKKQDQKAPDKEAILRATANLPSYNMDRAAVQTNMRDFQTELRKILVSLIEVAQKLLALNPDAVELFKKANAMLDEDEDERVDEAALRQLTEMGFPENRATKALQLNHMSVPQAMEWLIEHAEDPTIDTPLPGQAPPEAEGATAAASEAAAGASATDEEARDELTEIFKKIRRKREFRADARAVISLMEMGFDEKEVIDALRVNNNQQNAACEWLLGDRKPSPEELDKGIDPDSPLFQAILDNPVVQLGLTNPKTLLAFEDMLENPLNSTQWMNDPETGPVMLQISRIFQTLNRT
In words: split reporter; competitive protein-fragment complementation assay: CD95/KPC2 luciferase signal with overexpression of CD95 regions in HEK/293T cells.

Experiment [2] deals with T2, KPC2-hRluc-F[2] (UniProt Q9BSL1).
T2 sequence: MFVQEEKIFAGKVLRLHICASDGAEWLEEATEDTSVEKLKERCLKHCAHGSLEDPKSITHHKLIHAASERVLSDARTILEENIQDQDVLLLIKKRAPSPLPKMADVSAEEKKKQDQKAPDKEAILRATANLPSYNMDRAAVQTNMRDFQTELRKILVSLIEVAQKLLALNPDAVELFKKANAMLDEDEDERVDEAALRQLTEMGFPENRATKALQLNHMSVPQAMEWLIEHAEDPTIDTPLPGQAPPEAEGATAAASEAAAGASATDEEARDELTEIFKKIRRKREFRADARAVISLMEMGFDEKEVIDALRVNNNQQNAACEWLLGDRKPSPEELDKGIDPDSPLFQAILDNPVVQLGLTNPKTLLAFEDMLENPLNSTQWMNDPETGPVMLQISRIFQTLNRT
Put plainly: split reporter; protein-fragment complementation assay: Renilla luciferase fragments F1 and F2 fused to the two proteins, co-transfected HEK/293T cells, coelenterazine-h 5 μM.

Another experiment deals with T3, Flag-KPC2 (UniProt Q9BSL1).
T3 sequence: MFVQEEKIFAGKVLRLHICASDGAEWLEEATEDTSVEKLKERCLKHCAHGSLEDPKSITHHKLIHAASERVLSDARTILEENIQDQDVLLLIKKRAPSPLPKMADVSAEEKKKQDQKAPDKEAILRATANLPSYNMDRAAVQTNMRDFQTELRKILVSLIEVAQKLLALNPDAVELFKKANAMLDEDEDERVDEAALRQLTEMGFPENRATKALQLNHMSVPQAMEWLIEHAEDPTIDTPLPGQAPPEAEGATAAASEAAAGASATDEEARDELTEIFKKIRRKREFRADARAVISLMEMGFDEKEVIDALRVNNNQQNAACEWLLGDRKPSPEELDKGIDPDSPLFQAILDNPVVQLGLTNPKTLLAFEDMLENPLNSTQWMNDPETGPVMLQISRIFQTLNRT
Put plainly: co-IP; Flag immunoprecipitation (antibody-conjugated beads, overnight, IP buffer) from co-transfected CD95 k.o. HEK/293T cells, KPC2 co-transfected; immunoblotting.

Experiment [3] addresses GST-V5-CD95 (303-319) (human). In words: pull-down; 100 ng of purified GST-V5-CD95 domains mixed with lysate (1 mg) of HEK/293T cells transfected with Flag-KPC2 or Flag-p65, 2 h at 4°C, then anti-V5 agarose beads overnight; Hepes buffer, 150 mM NaCl; immunoblotting; only the target purified. (In general: A western blot detects proteins with antibodies after separation by electrophoresis.)

In experiment [4] the target is GST-V5-CD95 (211-303) (human). Described as above.
Experiment [5] concerns the target GST-V5-CD95 (175-210) (human). Described as above.
The target in experiment [6] is HA-CD95(1-303)-GFP (human). Put plainly: co-IP; HA immunoprecipitation of HA-tagged CD95-GFP constructs from CD95 k.o. HEK/293T cells co-transfected with Flag-KPC2, Flag-p65 or Flag-p65 fragments, 24 h after transfection; immunoblotting.
Experiment [7] has as its target HA-CD95(1-319)-GFP (human). The experiment is described as above.
For experiment [8], the target named is CD95 fused to the C-term region of Renilla luciferase (F2) (human). Put plainly: split reporter; protein-fragment complementation assay: Renilla luciferase fragments F1 and F2 fused to the two proteins, co-transfected HEK/293T cells, coelenterazine-h 5 μM.
Experiment [9] shares this target. In words: split reporter; competitive protein-fragment complementation assay: CD95/KPC2 luciferase signal with overexpression of CD95 regions in HEK/293T cells.
Experiment [10] deals with GST-V5-CD95 (303-319) (human). In words: pull-down; cell-free: 100 ng of each purified GST protein mixed 1 h at room temperature in IP buffer (25 mM Hepes, 150 mM NaCl, 2 mM EDTA, 1% Triton X100), anti-V5-agarose beads 2 h at 4°C; immunoblotting; both purified.

As to “overexpressed C-terminal region (303–319 residues) of CD95 (competitor in the PCA) (human) (domain or fragment)”, the binding entry in [1] is reported as “binds”.

On to “CD95(175-210)-hRluc-F[1] (human) (domain or fragment)”, for which, in the experiment with KPC2-hRluc-F[2], the binding result was “no binding”.

Take “CD95(303-319)-hRluc-F[1] (human) (domain or fragment)”: in the experiment with KPC2-hRluc-F[2], the binding result was “binds”.

For the molecule “overexpressed whole intracellular region of CD95 (competitor in the PCA) (human) (domain or fragment)”, the binding result in experiment [1] is reported as “binds”.

As to “CD95(175–319)-F1 (human) (domain or fragment)”, the binding result with KPC2-hRluc-F[2] is reported as “binds”.

Consider HA-CD95(1-319)-GFP (human) (receptor), for which, in the experiment with Flag-KPC2, the binding entry was “binds”.

Take “CD95(211-303)-hRluc-F[1] (human) (domain or fragment)”: in the experiment with KPC2-hRluc-F[2], the binding result is “no binding”.

B1: Flag-KPC2 (protein, UniProt Q9BSL1 1-405)
chain: MFVQEEKIFAGKVLRLHICASDGAEWLEEATEDTSVEKLKERCLKHCAHGSLEDPKSITHHKLIHAASERVLSDARTILEENIQDQDVLLLIKKRAPSPLPKMADVSAEEKKKQDQKAPDKEAILRATANLPSYNMDRAAVQTNMRDFQTELRKILVSLIEVAQKLLALNPDAVELFKKANAMLDEDEDERVDEAALRQLTEMGFPENRATKALQLNHMSVPQAMEWLIEHAEDPTIDTPLPGQAPPEAEGATAAASEAAAGASATDEEARDELTEIFKKIRRKREFRADARAVISLMEMGFDEKEVIDALRVNNNQQNAACEWLLGDRKPSPEELDKGIDPDSPLFQAILDNPVVQLGLTNPKTLLAFEDMLENPLNSTQWMNDPETGPVMLQISRIFQTLNRT
On to B1, for which the binding result in [3] is on record as “binds”; in experiment [4] it was “no binding”; in experiment [5] it was “no binding”; in experiment [6] it was “no binding”; in [7], “binds”.

B2: KPC2 fused to the N-term part of Renilla luciferase (F1) (protein, UniProt Q9BSL1 1-405)
chain: MFVQEEKIFAGKVLRLHICASDGAEWLEEATEDTSVEKLKERCLKHCAHGSLEDPKSITHHKLIHAASERVLSDARTILEENIQDQDVLLLIKKRAPSPLPKMADVSAEEKKKQDQKAPDKEAILRATANLPSYNMDRAAVQTNMRDFQTELRKILVSLIEVAQKLLALNPDAVELFKKANAMLDEDEDERVDEAALRQLTEMGFPENRATKALQLNHMSVPQAMEWLIEHAEDPTIDTPLPGQAPPEAEGATAAASEAAAGASATDEEARDELTEIFKKIRRKREFRADARAVISLMEMGFDEKEVIDALRVNNNQQNAACEWLLGDRKPSPEELDKGIDPDSPLFQAILDNPVVQLGLTNPKTLLAFEDMLENPLNSTQWMNDPETGPVMLQISRIFQTLNRT
For the molecule B2, the binding result in experiment [8] and in [9] was “binds” each time.

B3: GST-KPC2 (protein, UniProt Q9BSL1 1-405)
chain: MFVQEEKIFAGKVLRLHICASDGAEWLEEATEDTSVEKLKERCLKHCAHGSLEDPKSITHHKLIHAASERVLSDARTILEENIQDQDVLLLIKKRAPSPLPKMADVSAEEKKKQDQKAPDKEAILRATANLPSYNMDRAAVQTNMRDFQTELRKILVSLIEVAQKLLALNPDAVELFKKANAMLDEDEDERVDEAALRQLTEMGFPENRATKALQLNHMSVPQAMEWLIEHAEDPTIDTPLPGQAPPEAEGATAAASEAAAGASATDEEARDELTEIFKKIRRKREFRADARAVISLMEMGFDEKEVIDALRVNNNQQNAACEWLLGDRKPSPEELDKGIDPDSPLFQAILDNPVVQLGLTNPKTLLAFEDMLENPLNSTQWMNDPETGPVMLQISRIFQTLNRT
As to B3, the binding entry in experiment [10] was “binds”.
